Measured values from the supplement of paper PMC12819154, “High-throughput peptide-centric local stability assay extends protein–ligand identification to membrane proteins, tissues and bacteria” (Nature Structural & Molecular Biology, 2025).
The other results are listed elsewhere or left out. Most entries show no effect beyond the scatter of the controls.

By UniProt entry, the sequences of proteins in these tests, tags left out. Where a name states a change or a piece, a line headed by the entry shows the natural chain unless it says otherwise.
UniProt P77337: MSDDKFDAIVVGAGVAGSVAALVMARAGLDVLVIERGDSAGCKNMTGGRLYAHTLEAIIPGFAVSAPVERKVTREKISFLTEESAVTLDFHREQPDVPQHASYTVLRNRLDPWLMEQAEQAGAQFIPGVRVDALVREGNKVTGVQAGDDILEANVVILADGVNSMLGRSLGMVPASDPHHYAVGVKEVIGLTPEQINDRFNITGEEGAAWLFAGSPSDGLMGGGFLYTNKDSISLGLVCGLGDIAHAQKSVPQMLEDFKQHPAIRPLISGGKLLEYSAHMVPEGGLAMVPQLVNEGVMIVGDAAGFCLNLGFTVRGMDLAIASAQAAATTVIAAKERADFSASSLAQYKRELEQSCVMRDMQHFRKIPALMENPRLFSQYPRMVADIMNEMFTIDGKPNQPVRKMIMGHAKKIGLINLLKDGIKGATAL
UniProt P77256: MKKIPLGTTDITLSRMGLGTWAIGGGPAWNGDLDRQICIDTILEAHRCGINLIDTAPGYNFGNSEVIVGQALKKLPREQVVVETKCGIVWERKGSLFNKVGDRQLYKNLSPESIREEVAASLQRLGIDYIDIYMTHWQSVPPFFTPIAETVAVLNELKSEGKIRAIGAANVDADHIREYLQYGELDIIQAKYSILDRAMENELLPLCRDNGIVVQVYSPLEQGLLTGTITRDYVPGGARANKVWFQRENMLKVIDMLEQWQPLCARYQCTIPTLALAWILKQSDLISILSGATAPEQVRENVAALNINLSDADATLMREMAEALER
UniProt P77348: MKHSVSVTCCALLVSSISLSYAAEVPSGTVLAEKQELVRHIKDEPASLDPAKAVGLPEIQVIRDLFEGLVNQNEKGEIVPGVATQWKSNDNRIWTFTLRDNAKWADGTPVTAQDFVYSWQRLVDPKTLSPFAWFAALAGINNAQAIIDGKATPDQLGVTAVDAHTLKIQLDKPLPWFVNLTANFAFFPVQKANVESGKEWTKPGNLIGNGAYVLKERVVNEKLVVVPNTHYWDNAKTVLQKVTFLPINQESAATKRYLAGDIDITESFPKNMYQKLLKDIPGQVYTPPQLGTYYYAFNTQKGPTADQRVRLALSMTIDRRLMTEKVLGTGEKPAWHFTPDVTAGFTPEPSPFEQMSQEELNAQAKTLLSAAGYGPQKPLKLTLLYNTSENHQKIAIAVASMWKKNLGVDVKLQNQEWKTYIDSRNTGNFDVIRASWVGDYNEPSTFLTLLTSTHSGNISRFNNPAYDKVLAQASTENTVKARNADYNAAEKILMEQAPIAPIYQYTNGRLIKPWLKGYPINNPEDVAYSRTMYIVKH
UniProt P76083: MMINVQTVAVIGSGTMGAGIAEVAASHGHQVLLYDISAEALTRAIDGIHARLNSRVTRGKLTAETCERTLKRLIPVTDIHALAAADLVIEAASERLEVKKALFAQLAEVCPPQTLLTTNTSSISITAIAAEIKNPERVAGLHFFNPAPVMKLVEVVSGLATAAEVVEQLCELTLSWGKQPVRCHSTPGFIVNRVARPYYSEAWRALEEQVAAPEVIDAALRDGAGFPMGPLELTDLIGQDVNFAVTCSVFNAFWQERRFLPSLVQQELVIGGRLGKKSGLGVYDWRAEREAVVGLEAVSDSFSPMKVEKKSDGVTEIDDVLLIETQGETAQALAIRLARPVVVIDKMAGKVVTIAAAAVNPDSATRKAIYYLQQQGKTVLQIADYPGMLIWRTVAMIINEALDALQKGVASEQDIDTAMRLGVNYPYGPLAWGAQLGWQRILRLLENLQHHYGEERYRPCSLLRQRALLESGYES
UniProt P75975: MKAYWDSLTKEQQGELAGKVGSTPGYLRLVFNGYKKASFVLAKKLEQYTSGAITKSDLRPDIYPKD
UniProt P76002: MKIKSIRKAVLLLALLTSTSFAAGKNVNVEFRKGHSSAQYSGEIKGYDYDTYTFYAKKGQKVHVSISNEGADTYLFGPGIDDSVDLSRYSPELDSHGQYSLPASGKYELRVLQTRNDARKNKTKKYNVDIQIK
UniProt P77467: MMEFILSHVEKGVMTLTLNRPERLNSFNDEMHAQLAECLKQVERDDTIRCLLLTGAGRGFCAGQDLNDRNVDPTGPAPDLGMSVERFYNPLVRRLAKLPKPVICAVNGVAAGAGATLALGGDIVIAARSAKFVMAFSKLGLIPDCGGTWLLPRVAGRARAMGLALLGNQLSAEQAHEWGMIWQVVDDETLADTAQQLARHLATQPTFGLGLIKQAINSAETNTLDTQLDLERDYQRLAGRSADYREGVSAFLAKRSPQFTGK
UniProt P77324: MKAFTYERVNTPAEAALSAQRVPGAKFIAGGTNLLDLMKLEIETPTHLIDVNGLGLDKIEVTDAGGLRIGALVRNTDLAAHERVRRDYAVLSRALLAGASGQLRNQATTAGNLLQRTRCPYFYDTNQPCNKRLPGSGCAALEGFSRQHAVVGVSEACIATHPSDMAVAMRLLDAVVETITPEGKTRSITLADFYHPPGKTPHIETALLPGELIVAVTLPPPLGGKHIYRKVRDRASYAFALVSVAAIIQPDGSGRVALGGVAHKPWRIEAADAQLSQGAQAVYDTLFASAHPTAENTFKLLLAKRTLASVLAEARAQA
UniProt P77374: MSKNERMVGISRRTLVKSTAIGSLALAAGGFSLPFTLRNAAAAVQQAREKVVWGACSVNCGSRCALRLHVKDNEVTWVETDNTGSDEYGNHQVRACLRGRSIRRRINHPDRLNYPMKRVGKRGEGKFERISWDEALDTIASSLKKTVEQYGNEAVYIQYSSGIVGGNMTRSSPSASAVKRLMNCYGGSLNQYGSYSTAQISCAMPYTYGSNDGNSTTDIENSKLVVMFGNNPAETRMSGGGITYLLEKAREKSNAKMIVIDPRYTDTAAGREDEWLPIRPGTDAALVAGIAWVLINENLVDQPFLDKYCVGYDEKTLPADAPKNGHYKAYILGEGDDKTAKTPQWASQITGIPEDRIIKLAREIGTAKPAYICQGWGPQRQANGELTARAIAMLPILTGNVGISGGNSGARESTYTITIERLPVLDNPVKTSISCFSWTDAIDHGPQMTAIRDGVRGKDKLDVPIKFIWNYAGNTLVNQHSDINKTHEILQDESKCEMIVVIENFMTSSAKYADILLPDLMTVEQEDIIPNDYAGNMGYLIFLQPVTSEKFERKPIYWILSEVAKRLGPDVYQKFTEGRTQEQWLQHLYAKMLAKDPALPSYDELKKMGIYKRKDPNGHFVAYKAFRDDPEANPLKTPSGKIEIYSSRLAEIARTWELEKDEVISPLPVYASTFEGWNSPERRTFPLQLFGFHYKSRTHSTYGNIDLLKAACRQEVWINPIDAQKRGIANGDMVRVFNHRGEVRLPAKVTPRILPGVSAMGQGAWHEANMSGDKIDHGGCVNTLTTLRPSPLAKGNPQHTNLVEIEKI
UniProt P77260: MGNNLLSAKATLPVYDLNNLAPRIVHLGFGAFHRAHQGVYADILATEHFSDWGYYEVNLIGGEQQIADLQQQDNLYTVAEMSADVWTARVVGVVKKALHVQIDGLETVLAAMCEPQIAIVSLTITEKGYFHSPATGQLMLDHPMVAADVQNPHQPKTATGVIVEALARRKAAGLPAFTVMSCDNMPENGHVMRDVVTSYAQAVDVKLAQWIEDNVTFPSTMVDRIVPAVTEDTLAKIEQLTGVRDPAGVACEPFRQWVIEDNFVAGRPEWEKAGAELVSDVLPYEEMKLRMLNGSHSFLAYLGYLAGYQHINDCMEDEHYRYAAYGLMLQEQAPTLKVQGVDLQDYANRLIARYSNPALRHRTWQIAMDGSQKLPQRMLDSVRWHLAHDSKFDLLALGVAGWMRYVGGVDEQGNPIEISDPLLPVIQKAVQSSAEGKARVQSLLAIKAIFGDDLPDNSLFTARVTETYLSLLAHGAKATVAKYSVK
UniProt P76543: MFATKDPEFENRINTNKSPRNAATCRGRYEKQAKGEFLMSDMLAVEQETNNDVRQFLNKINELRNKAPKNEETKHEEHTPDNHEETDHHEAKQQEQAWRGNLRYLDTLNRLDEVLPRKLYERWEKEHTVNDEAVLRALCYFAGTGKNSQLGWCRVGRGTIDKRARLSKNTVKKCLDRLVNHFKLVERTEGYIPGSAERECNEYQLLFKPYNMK
UniProt P76149: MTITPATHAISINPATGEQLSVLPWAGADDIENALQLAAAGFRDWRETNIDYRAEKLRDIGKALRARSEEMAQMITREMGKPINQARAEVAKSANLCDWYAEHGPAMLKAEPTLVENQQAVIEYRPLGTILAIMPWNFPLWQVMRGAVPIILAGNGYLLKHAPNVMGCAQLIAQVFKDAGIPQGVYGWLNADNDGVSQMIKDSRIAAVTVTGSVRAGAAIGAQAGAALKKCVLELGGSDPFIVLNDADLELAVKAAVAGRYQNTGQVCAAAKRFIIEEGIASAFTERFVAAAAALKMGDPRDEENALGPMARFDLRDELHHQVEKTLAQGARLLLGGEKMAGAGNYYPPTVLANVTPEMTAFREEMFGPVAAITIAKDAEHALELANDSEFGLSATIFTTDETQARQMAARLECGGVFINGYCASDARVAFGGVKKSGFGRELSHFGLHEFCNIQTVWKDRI

What follows are targets tested with CC1(C)S[C@@H]2[C@H](NC(=O)[C@H](N)c3ccccc3)C(=O)N2[C@H]1C(=O)O [ampicillin] (assay: log2 fold change of tryptic peptide abundance, ligand vs vehicle (limited proteolysis) (log2 ratio); higher = more trypsin-susceptible (destabilized)). Conditions: ligand concentration: 10 uM; sample: E. coli crude lysate.
With “UniProt P77337 (peptide sequence: QHPAIRPLISGGK, peptide start residue: 260)” the log2 fold change was -0.381. “UniProt P77256 (peptide sequence: AIGAANVDADHIR, peptide start residue: 165)” showed a log2 fold change of 0.451. Target “UniProt P77348 (peptide sequence: TLLSAAGYGPQKPLK, peptide start residue: 366)” has a log2 fold change of -0.27. For “UniProt P76083 (peptide sequence: SGLGVYDWR, peptide start residue: 278)”, the log2 fold change was -0.312. For “UniProt P75975 (peptide sequence: VGSTPGYLR, peptide start residue: 20)”, the log2 fold change was 0.181. “UniProt P76002 (peptide sequence: YSPELDSHGQYSLPASGK, peptide start residue: 89)” was tested, and the log2 fold change was 0.166. Work on “UniProt P76422 (peptide sequence: SLLAMGCGAVLMK, peptide start residue: 164)” yielded a log2 fold change of 0.169. With “UniProt P77467 (peptide sequence: EGVSAFLAK, peptide start residue: 246)” the log2 fold change was -0.413. With “UniProt P77324 (peptide sequence: NQATTAGNLLQR, peptide start residue: 105)” the log2 fold change was 0.154. For “UniProt P77374 (peptide sequence: THSTYGNIDLLK, peptide start residue: 698)”, the log2 fold change was -0.54. With “UniProt P77260 (peptide sequence: TATGVIVEALAR, peptide start residue: 157)” the log2 fold change was 0.183. Target “UniProt P76543 (peptide sequence: WEKEHTVNDEAVLR, peptide start residue: 123)” has a log2 fold change of -0.406. “UniProt P76149 (peptide sequence: ARSEEMAQMITR, peptide start residue: 66)” was tested, and the log2 fold change was -0.505.
